Laboratory results reported in US6649763B1, “Optically active quinoline carboxylic acid derivatives with 7-pyrrolidine substituents causing optical activity and a process for the preparation thereof” (Dong Wha Pharm. Ind. Co., Ltd., priority 1999, dated 2003).

Assay: Phototoxicity test
Assay type: in vivo
Conditions: CD-1 female mice, oral 50 mg/kg, UVA light source
Description: It is known that the presence of a halogen atom at the 8-position of the quinolone nuclei causes phototoxicity.
After 16 hours of starvation, CD-1 female mice were orally administered with a dose of 50 mg/kg of the compounds and allowed to be exposed for 4.5 hours to a UVA light source. The mice were located 15 cm away from the light source. Whether the mice were damaged in their ears was adopted as a main factor for the phototoxicity and determined after 24 hour and 48 hour UV exposure. The edema which the mice suffered were examined by measuring the thickness changes of their ears with the aid of electronic calipers and calculating average values. Also, an observation was made as to whether the mice suffered from erythema.

SMILES: O=C(O)c1cn(C2CC2)c2cc(N3CCNCC3)c(F)cc2c1=O [Ciprofloxacin, ciprofloxacin]
- Thickness of mice's ears after UV exposure, After 48 hr: 46.0 ± 4.31
